For four molecules, binding results are on record in PMC3648463, “Common Interactions between S100A4 and S100A9 Defined by a Novel Chemical Probe” (PLoS ONE, 2013).

Amino acid sequences for entries named in this document (tags omitted).
UniProt P26447: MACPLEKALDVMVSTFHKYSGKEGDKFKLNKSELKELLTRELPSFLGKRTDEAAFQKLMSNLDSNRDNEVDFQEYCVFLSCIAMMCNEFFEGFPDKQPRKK

The target in assay [1] is recombinant human S100A4 (human) (UniProt P26447). The assay can be described thus: SPR; S100A1, A4, A7, A9 and A13 (~1.3 µg/mL) injected (2 min at 30 µL/min) over immobilised S100A4 and S100A9 (~2.5 kRU); 1 mM Ca++ and 20 µM Zn++; responses at late association phase; both purified.
Assay [2] concerns the target recombinant human S100A9 (human) (UniProt P06702). The assay is described as above.
Assay [3] concerns the target human S100A4 expressed in 293T cells (human) (UniProt P26447). The assay can be described thus: cross-linking; 293T cells co-transfected with S100A4 and S100A9 cDNA, 24 h; 1 mM DSS in PBS, 1 h on ice; lysate, SDS-PAGE, western blot with anti-S100A4 or anti-S100A9.
The target in assay [4] is recombinant human S100A4 (human) (UniProt P26447). The assay can be described thus: SPR; S100A4 and S100A9 (~1.3 µg/mL) injected over immobilised S100A4 or S100A9 in HBS-P with 1 mM Ca++ without Zn++; both purified.

These are yes or no findings as the source states them, for the method shown. For part of these data: In cells and extracts the contact can be indirect. Some binding calls cover weakened binding; strength is not graded here.

B1: recombinant human S100A7 (protein, UniProt P31151 1-101)
chain: MSNTQAERSIIGMIDMFHKYTRRDDKIEKPSLLTMMKENFPNFLSACDKKGTNYLADVFEKKDKNEDKKIDFSEFLSLLGDIATDYHKQSHGAAPCSGGSQ
Consider B1, for which the binding entry in assay [1] and in assay [2] was “no binding (tested: ~1.3 µg/mL)” throughout.

B2: recombinant human S100A13 (protein, UniProt Q99584 1-98)
chain: MAAEPLTELEESIETVVTTFFTFARQEGRKDSLSVNEFKELVTQQLPHLLKDVGSLDEKMKSLDVNQDSELKFNEYWRLIGELAKEIRKKKDLKIRKK
For the molecule B2, the binding result in assay [1] and in assay [2] was “no binding (tested: ~1.3 µg/mL)” each time.

B3: human S100A9 expressed in 293T cells (protein, UniProt P06702 1-114)
chain: MTCKMSQLERNIETIINTFHQYSVKLGHPDTLNQGEFKELVRKDLQNFLKKENKNEKVIEHIMEDLDTNADKQLSFEEFIMLMARLTWASHEKMHEGDEGPGHHHKPGLGEGTP
Consider B3, for which the binding entry in assay [3] is “binds”.

B4: recombinant human S100A9 (protein, UniProt P06702 1-114)
chain: B3 chain
Regarding B4, the binding entry in assay [4] is given as “no binding (condition: 1 mM Ca++ without 20 µM Zn++)”.
